Experimental data as given in PubChem BioAssay (EPA / NIEHS).
This list was built around the results that the source calls inconclusive (neither active nor inactive); the mix of calls is not that of the screen. Potencies of inconclusive entries are doubtful fits and often do not repeat. Active and inactive are the calls of the source. Rule for the calls: active = hit-call score of the fitted dose curve at least 0.9, where 1 is the maximum; inconclusive = response in the unintended direction; inactive = score below 0.9.

Chains of the proteins cited; added tags and fusions are not shown. Lines headed by an entry give the natural chain unless they say otherwise; changes in a name come on top.
UniProt P54762: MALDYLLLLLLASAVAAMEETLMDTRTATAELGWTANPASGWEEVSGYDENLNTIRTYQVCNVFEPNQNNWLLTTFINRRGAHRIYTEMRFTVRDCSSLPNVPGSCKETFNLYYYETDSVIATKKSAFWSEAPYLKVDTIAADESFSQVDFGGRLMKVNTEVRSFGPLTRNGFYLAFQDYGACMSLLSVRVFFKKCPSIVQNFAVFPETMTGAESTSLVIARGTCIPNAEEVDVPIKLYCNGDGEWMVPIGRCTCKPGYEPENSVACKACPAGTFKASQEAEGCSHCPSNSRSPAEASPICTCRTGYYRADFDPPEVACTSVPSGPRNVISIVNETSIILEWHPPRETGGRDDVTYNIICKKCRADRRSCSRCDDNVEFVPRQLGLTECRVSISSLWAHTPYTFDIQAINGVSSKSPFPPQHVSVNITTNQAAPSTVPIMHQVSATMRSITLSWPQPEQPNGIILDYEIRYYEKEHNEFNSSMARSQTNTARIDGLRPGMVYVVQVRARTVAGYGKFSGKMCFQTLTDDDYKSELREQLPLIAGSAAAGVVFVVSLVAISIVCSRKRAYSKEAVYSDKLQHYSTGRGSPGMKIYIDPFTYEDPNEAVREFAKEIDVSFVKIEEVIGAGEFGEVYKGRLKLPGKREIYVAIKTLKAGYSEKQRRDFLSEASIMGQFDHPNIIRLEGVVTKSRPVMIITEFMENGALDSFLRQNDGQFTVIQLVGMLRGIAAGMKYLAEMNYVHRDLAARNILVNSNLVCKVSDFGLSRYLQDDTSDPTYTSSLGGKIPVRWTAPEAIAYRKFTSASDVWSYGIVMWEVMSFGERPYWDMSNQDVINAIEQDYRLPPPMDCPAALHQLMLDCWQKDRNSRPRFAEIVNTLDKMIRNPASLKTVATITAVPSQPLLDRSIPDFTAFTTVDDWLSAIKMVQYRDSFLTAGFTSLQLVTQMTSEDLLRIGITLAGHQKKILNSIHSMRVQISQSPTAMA

molecular target: human Ephrin type-B Receptor 1 (EphB1), EPHB1 (gene 2047) (UniProt P54762); assay: NVS_ENZ_hEphB1: NovaScreen (NVS) Enzymatic Assay for human Ephrin type-B Receptor 1 (EphB1) (AID 2283154)
Description: NVS_ENZ_hEphB1 is a biochemical, single-readout assay that uses extracted gene-proteins in a cell-free assay. Measurements were taken 1 hour after chemical dosing in a 384-well plate.NVS_ENZ_hEphB1 is one of one assay component(s) measured or calculated from the NVS_ENZ_hEphB1 assay. It is designed to make measurements of enzyme activity, a form of enzyme reporter, as detected with fluorescence intensity signals by Fluorescence and electrophoretic mobility shift technology.Data from the assay component NVS_ENZ_hEphB1 was analyzed into 1 assay endpoint. This assay endpoint, NVS_ENZ_hEphB1, was analyzed in the positive analysis fitting direction relative to DMSO as the negative control and baseline of activity. Using a type of enzyme reporter, loss-of-signal activity can be used to understand changes in the enzymatic activity as they relate to the gene EPHB1. Furthermore, this assay endpoint can be referred to as a primary readout, because this assay has produced multiple assay endpoints where this one serves a enzymatic activity function. To generalize the intended target to other relatable targets, this assay endpoint is annotated to the kinase intended target family, where the subfamily is receptor tyrosine kinase.
Binding assays used specific radioligands (tritiated, iodinated) with non-radioactive competitive displacement ligands in agonist or antagonist protocols (as indicated) and various reference compounds and inhibitors to titrate specific binding to receptors and transporters. Most enzyme assays (CYPs, kinases, phosphatases, proteases, HDACs) used recombinant protein and specific substrates (fluorescence mostly, some colorimetric and radioactive) and inhibitors, followed by a biochemical separation of substrate and product. All assays for the biochemical HTS were initially run in duplicate at a single concentration (10 uM for CYP450 assays and 25 uM for all others). […] Each assay was run with positive and negative controls, and concurrent controls on every plate. The follow-up (secondary) screen tested active chemical-pairs in concentration series, as well as a few additional assays not tested in the primary screen, some selected negative inactives, and several cases re-run in the concentration series for confirmatory purposes.

SMILES | outcome | AC50
CC1COC(Cn2cncn2)(c2ccc(Oc3ccc(Cl)cc3)cc2Cl)O1 (stereo unspecified) | inactive | 
C=C(C)[C@H]1Cc2c(ccc3c2O[C@@H]2COc4cc(OC)c(OC)cc4[C@@H]2C3=O)O1 |  | inconclusive: 46.9 µM
C=CCC1=C(C)[C@@H](OC(=O)[C@@H]2[C@@H](C=C(C)C)C2(C)C)CC1=O |  | inconclusive: 25 µM
C#CCC1=C(C)C(OC(=O)C2C(C=C(C)C)C2(C)C)CC1=O (stereo unspecified) |  | inconclusive: 4.06 µM
CCOc1nc(C(Cl)(Cl)Cl)ns1 |  | inconclusive: 0.113 µM
CNC(=O)CSP(=S)(OC)OC | inactive | 
CC(C)=CC1C(C(=O)OCN2C(=O)C3=C(CCCC3)C2=O)C1(C)C (stereo unspecified) |  | inconclusive: 25 µM
CC(C)Nc1nc(Cl)nc(NC(C)C)n1 |  | inconclusive: 25 µM
CC1=C(C(=O)Nc2ccccc2)SCCO1 |  | inconclusive: 4.96 µM
CCC(C)Nc1c([N+](=O)[O-])cc(C(C)(C)C)cc1[N+](=O)[O-] (stereo unspecified) |  | inconclusive: 25 µM
Cc1ccc(N=CN(C)C=Nc2ccc(C)cc2C)c(C)c1 | inactive | 

Reprinted at random: two entries already listed, in no set order.
SMILES | outcome | AC50
C=C(C)[C@H]1Cc2c(ccc3c2O[C@@H]2COc4cc(OC)c(OC)cc4[C@@H]2C3=O)O1 |  | inconclusive: 46.9 µM
CCOc1nc(C(Cl)(Cl)Cl)ns1 |  | inconclusive: 0.113 µM
